Laboratory results taken from patent US11590202B2, “Inhibitors of LTβR-NFκB signaling pathways for treating inflammation and cancer” (University of Maryland, Baltimore, priority 2017, dated 2023).
Entries after “also recorded” stand apart in the source; their conditions may differ. At least one peptide structure holds a part that was inferred or is arguable (an end, a ring closure or a residue). No end group written: not given here.

What was measured:
[1] = test system: LTβR complex (TRAF2, TRAF3); assay: Co-immunoprecipitation of LTβR complex with anti-LTβR; assay type: cell-based, mouse; settings: LEC pretreated, then anti-LTβR mAb for 10 minutes
Procedure: (§1) LECs were lysed in buffer containing 20 mM HEPES (pH 7.4), 150 mM NaCl, 10 mM NaF, 2 mM Na3VO4, 1 mM EDTA, 1 mM EGTA, 0.5% Triton X-100, 0.1 mM DTT, 1 mM PMSF and protease inhibitor cocktail (Roche, Indianapolis, Ind.). Protein in the cell extract was quantified using protein quantification kit (Bio-Rad, Philadelphia, Pa.) and 10 μg total protein was run on Novex™ WedgeWell™ 4-20% Tris-Glycine Mini Gels (Invitrogen) and transferred to an Immobilon-P membrane (Bio-Rad). Membranes were probed with anti-NF-κB2 p100/p52, NIK, phospho-IKKα/β(Ser176/180) (16A6), IκBα, TRAF2, TRAF3, and GAPDH antibodies. For co-IP assays, 500 μg total protein of cell extract was incubated with 1 μg of anti-mLTβR (5G11b) overnight, followed by 4 hour incubation with 25 μL protein G Agarose beads (Sigma-Aldrich). The beads were then washed with lysis buffer and boiled in 2× Laemmli sample buffer (Bio-Rad).

[2] = test system: LTβR-NIK signaling in LEC and SVEC4-10; assay: Immunohistochemistry of LTβR, NIK and RelB in LEC and SVEC4-10; assay type: cell-based, mouse; settings: anti-LTβR for 6 hours
Procedure: (§2) LEC monolayers were stained for surface VCAM-1, LTβR or Lyve-1 with rat anti-mouse VCAM-1 (Clone 429, eBioscience), rat anti-mouse LTβR (Clone 3C8, eBioscience) or rabbit anti-mouse Lyve-1 (70R-LR003, Fitzgerald, Acton, Mass.), then were fixed for 20 minutes at 4° C. with 4% (w/v) paraformaldehyde (Affymetrix), permeabilized with PBS 0.2% (v/v) Triton X-100 (Sigma-Aldrich), and treated with 2% donkey serum for 10 minutes then incubated with rabbit anti-mouse CXCL12 (eBioscience), goat-anti-mouse CCL21 (Clone AF457, R&D System), or anti-NIK mouse monoclonal antibody (Clone A-12, Santa Cruz Biotechnology) overnight at 4° C. The primary antibodies were detected with Alexa Fluor […], 647 (Cy5), or 546 (Cy3)-conjugated donkey anti-goat, donkey anti-rabbit, or donkey anti-rat secondary antibodies (Jackson ImmunoResearch, West Grove, Pa.) for 1 hour at 4° C. Transwell membranes were transferred onto glass slides and visualized by fluorescent microscopy (Zeiss LSM 510 Meta, and LSMS Duo) with a ×60 or ×20 objective. Images were analyzed with Volocity version 6.3 software.

LEC [3] = assay: T cell-LEC binding assay; assay type: cell-based, mouse
[4] = test system: contact hypersensitivity (CHS) response; assay: Contact hypersensitivity (DNFB); assay type: in vivo, mouse
[5] = test system: CCL21 on Lyve-1+ lymphatic vessels; assay: Whole mount staining of ear pinnae for CCL21 and Lyve-1; assay type: in vivo; settings: C57BL/6 mice, 0.1 nM/ear in 10 μL; after 3 hours
[6] = test system: classical NFκB signaling in LEC; assay: Immunoblot of classical NFκB signaling (IKKα/β phosphorylation, IκBα degradation); assay type: cell-based, mouse; settings: LTβR-activated LEC
Procedure: as §1

[7] = test system: LTβR-mediated non-classical NFκB (NIK) signaling in LEC and SVEC4-10; assay: Immunoblot of non-classical NFκB (NIK) signaling after LTβR activation; assay type: cell-based, mouse; settings: pretreated with peptides or inhibitors, then anti-LTβR for 6 hours
Procedure: as §1

[8] = test system: TNFR1-mediated VCAM-1 expression in LEC; assay: TNFα-stimulated VCAM-1 expression in LEC (qRT-PCR); assay type: cell-based, mouse
Procedure: (§3) One μg of total RNA extracted using Trizol reagent (Invitrogen) was reverse-transcribed into cDNA with GoScript™ Reverse Transcription System (Promega, Fitchburg, Wis.). mRNA expression levels were quantified by real-time PCR using SYBR Green Master Mix with an ABI Prism 7900HT (Applied Biosystems, Foster City, Calif.). Values for specific gene expression were normalized to house-keeping HPRT gene expression and were calculated as: 2^(Ct of HPRT-Ct specific gene). For the microarrays, total RNA of treated mLECs was extracted with RNeasy mini kit (Qiagen, Germantown, Md.) and analyzed for purity and integrity by capillary electrophoresis on an Agilent Bioanalyzer 2100 (Agilent Technologies, Inc. Santa Clara, Calif.). 100 ng/sample was subjected to amplification, followed by labeling and hybridization to Mouse Genome 430 2.0 GeneChips (Affymetrix, Santa Clara, Calif.). Sample amplification, labeling, hybridization, and detection were performed according to the manufacturer's protocols.

LEC [9] = assay: T cell transendothelial migration across LEC toward CCL19; assay type: cell-based, mouse; settings: LEC pretreated with 20 μM peptide for 30 minutes; toward CCL19 for 3 hours
[10] = test system: LTβR-induced chemokines and cell adhesion molecules in LEC and SVEC4-10; assay: LTβR-induced chemokine and adhesion molecule expression (qRT-PCR, ELISA, flow cytometry, immunohistochemistry); assay type: cell-based, mouse; settings: peptides 20 μM
Procedure: LECs in PBS containing 0.2 mM calcium, 0.1 mM magnesium and 0.5% w/v BSA were treated with anti-CD16/32 (clone 93, eBioscience) to block Fc receptors, and then stained with antibodies to cell surface molecules in the same buffer. Flow cytometry antibodies used were: APC-eflour780-anti-mouse CD4 (GK1.5, eBioscience); PE-anti-mouse CD25 (PC61.5, eBioscience); APC-anti-mouse VCAM-1 (clone 647, eBioscience). For detection of LTα2β1, T cells were incubated with MOPC21 or LTβRIg at 2 μg/mL for 60 minutes at 37° C. in HBSS with 2% FBS. Cells were washed, and then stained for 45 minutes at 4° C. with BV421-rat anti-mouse IgG1 along with antibodies to other cell surface markers. Cells were then washed and fixed with 4% paraformaldehyde and run on an LSR Fortessa flow cytometer (BD Biosciences, San Jose, Calif.). Results were analyzed with software FlowJo 8.7 (Treestar).
as §3
5×10^5 LECs or SVEC4-10 cells were plated in 12-well plates and treated with 20 μM peptides for 30 minutes at 37° C. Cells were then washed and incubated with anti-LTβR agonistic mAb (2 μg/mL) for 30 minutes at 4° C., followed by washing and then cross-linking with anti-rat IgG (2 μg/mL) for 6 or 16 hours at 37° C. The supernatants were collected and stored in −80° C. Mouse CCL2 and CCL21 were measured with ELISA kits from Biolegend, Inc. and R&D Systems (Minneapolis, Minn.), respectively.
as §2

LEC [11] = assay: In vitro DC migration to CCL21 through LEC; assay type: cell-based, mouse; settings: to CCL21 through peptide-treated LEC
[12] = test system: naïve CD4 T cell migration to draining LN; assay: Footpad-popliteal LN migration assay; assay type: in vivo, mouse; settings: peptide injected into the footpad
[13] = test system: LEC stimulated with anti-LTβR plus cross-linking; assay: Transcriptional profiling with Affymetrix gene array; assay type: cell-based, mouse; settings: 4 hours, anti-LTβR mAb plus ciLT
[14] = test system: SVEC4-10 activated with anti-LTβR mAb; assay: Peptide dose finding by cytokine responses; assay type: cell-based, mouse; settings: various doses
LEC [15] = assay: Evans Blue endothelial permeability assay; assay type: cell-based, mouse
[16] = test system: human breast cancer cell line MDA-MB-231; assay: Cancer cell in vitro migration assay, human breast cancer; assay type: cell-based; settings: 20 μM peptide; overnight
[17] = LEC or SVEC4-10, anti-LTβR mAb plus CL

Sequence: RQIKIWFQNRRMKWKKPEEGAPGP [ciLT]
- TRAF2 recruitment to the LTβR complex [1]: sufficient to inhibit
- TRAF3 recruitment to the LTβR complex [1]: sufficient to inhibit
- NIK expression and co-localization with LTβR ([2]; SVEC4-10): neither ciLT, BAY11-7085, nor NIKi affected
- LTβR-induced RelB nuclear translocation ([2]; mLEC): but not ciLT
- binding of CD4 T cells to treated LEC (LEC [3]): but not ciLT
- CHS, peptide at challenge (elicitation) ([4]; 20 nmol in ear pinna, day 5): inhibited CHS
- inflammatory infiltrate in the ear, peptide at start of resolution stage ([4]; day 7): fewer CD3 and CD11c cells were present
- CHS, peptide at start of resolution stage ([4]; day 7, 48 hours after challenge): enhanced resolution
- T cell infiltration, peptide at challenge (elicitation) ([4]; ear pinna, day 5): reduced T cell infiltration
- expression of CCL21 on Lyve-1+ lymphatic vessels in vivo [5]: significantly enhanced
- NFκB-mediated IκBα phosphorylation and degradation [6]: inhibited
- TRAF2 degradation [7]: prevented TRAF2 degradation
- TNFR1-mediated NFκB signaling [8]: unaltered
- Treg TEM across LEC (LEC [9]): enhanced Treg migration
- LTβR-induced CCL2 expression/production ([10]; LEC or SVEC4-10, anti-LTβR mAb (plus CL), NIKi 50 μM, BAY11 25 μM): specifically inhibited; also recorded: suppressed
- LTβR-induced CCL21 transcription and production [10, 17]: enhanced
- LTβR-induced CXCL12 expression [10, 17]: enhanced
- LTβR-induced VCAM-1 expression [10, 17]: specifically inhibited; also recorded: suppressed
- LTβR-induced CCL19 expression ([10]; LEC, anti-LTβR mAb plus CL): enhanced
- DC TEM in vitro (LEC [11]): enhanced
- naïve CD4 T cell homing into local draining LNs [12]: but not ciLT
- fold changes in gene expression vs medium alone or anti-LTβR mAb alone [13]: no statistically significant differences
- peptide dose giving optimal results [14]: 20 µM
- LEC permeability (Evans Blue barrier assay) (LEC [15]): did not affect
- MDA-MB-231 (parent cell line) migration toward SIP across human iLEC [16]: but not ciLT
